Experimental data reported in paper PMC6570650.
Results are given in words; binding and its absence hold for the method and conditions named. Binding seen in cells or lysates may run through a third protein. Some entries that bind do so weakly or less than the wild type. Where a sequence is shown, tags or fusion partners need not be part of it.

By UniProt entry, the sequences of proteins in these tests, tags left out.
UniProt P14713: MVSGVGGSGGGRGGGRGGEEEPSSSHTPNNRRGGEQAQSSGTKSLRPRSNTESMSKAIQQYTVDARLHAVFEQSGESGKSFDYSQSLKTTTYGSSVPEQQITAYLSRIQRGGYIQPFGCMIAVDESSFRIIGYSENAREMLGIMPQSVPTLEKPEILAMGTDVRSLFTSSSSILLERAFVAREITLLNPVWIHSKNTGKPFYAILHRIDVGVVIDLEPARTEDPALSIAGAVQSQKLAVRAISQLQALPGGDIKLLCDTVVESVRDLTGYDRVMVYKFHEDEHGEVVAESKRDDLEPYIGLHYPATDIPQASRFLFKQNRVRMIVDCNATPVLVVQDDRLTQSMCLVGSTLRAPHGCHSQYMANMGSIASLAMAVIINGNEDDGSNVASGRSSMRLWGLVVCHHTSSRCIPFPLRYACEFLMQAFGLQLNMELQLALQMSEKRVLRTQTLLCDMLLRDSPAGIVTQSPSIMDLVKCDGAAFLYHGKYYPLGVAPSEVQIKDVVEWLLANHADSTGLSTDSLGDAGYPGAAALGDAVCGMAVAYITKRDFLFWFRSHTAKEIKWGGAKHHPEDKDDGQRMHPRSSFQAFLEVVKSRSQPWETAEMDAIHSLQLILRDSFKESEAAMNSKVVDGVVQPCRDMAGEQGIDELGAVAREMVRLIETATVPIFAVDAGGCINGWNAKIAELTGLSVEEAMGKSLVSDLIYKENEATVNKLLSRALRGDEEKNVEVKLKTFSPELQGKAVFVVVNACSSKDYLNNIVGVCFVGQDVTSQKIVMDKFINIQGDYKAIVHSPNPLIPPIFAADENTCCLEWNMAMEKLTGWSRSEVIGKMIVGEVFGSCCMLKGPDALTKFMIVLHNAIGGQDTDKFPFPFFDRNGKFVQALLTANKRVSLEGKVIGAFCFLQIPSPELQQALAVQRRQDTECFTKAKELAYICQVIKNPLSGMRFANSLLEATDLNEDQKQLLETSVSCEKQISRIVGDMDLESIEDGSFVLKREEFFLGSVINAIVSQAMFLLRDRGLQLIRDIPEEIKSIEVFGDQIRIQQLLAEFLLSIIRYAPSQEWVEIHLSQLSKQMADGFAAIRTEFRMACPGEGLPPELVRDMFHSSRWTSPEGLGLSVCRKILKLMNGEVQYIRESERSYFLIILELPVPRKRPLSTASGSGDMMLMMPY

Columns and labels:
[1] = target: T1, RCB-HA-His (REGULATOR OF CHLOROPLAST BIOGENESIS with HA and His tags) (Arabidopsis thaliana) (UniProt F4JLC1); experiment: co-IP; anti-HA affinity matrix on cleared extract of 4-d-old RCB-HA-His/rcb-10 seedlings grown in 0.5 μmol m^-2 s^-1 FR light (PHYA) or 10 μmol m^-2 s^-1 R light (PHYB); Co-IP buffer 50 mM Tris-HCl pH 7.5, 100 mM NaCl, 0.1% IGEPAL CA-630; 4 h at 4 °C; blots with anti-PHYA or anti-PHYB
T1 sequence: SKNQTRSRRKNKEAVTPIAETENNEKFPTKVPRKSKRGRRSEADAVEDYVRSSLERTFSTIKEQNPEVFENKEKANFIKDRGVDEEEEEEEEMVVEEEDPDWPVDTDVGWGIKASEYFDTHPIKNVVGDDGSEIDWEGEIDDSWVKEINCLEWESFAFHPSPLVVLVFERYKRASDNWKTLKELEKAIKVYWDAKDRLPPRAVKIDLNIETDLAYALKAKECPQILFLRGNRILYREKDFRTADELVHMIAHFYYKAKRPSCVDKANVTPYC

[2] = target: T2, GST-RCB (Arabidopsis thaliana) (UniProt F4JLC1); experiment: pull-down; GST-RCB on glutathione sepharose beads; in vitro translated PHY apoproteins (no chromophore) in E buffer with 0.1% IGEPAL CA-630, 2 h; blots with anti-PHYA or anti-PHYB; only the target purified
T2 sequence: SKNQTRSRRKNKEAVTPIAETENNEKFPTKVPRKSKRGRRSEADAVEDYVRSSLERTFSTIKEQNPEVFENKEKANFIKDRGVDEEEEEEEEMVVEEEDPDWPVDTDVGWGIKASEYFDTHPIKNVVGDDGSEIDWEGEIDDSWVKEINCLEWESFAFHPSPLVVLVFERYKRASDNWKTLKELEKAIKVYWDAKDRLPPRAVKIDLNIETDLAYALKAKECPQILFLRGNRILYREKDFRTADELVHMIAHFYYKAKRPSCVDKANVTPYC

[3] = target: T2, GST-RCB (Arabidopsis thaliana); experiment: pull-down; GST-RCB on glutathione sepharose beads; in vitro translated PHY holoproteins (with phycocyanobilin) in the Pr form; E buffer with 0.1% IGEPAL CA-630, 2 h; only the target purified
[4] = target: T2, GST-RCB (Arabidopsis thaliana); experiment: pull-down; GST-RCB on glutathione sepharose beads; in vitro translated PHY holoproteins (with phycocyanobilin) in the Pfr form; E buffer with 0.1% IGEPAL CA-630, 2 h; only the target purified

“PHYB (phytochrome B), endogenous (from UniProt P14713 1-1172)” was tested, and the binding [1] was “binds”.

“PHYB-HA apoprotein (from UniProt P14713 1-1172)” was tested, and the binding [2] was “binds”.

“PHYB-HA holoprotein (with phycocyanobilin) (from UniProt P14713 1-1172)” was tested, and the binding [3] was “binds” and the binding [4] was “binds”.

B1: PHYA (phytochrome A), endogenous (protein, UniProt P14712 1-1122)
chain: MSGSRPTQSSEGSRRSRHSARIIAQTTVDAKLHADFEESGSSFDYSTSVRVTGPVVENQPPRSDKVTTTYLHHIQKGKLIQPFGCLLALDEKTFKVIAYSENASELLTMASHAVPSVGEHPVLGIGTDIRSLFTAPSASALQKALGFGDVSLLNPILVHCRTSAKPFYAIIHRVTGSIIIDFEPVKPYEVPMTAAGALQSYKLAAKAITRLQSLPSGSMERLCDTMVQEVFELTGYDRVMAYKFHEDDHGEVVSEVTKPGLEPYLGLHYPATDIPQAARFLFMKNKVRMIVDCNAKHARVLQDEKLSFDLTLCGSTLRAPHSCHLQYMANMDSIASLVMAVVVNEEDGEGDAPDATTQPQKRKRLWGLVVCHNTTPRFVPFPLRYACEFLAQVFAIHVNKEVELDNQMVEKNILRTQTLLCDMLMRDAPLGIVSQSPNIMDLVKCDGAALLYKDKIWKLGTTPSEFHLQEIASWLCEYHMDSTGLSTDSLHDAGFPRALSLGDSVCGMAAVRISSKDMIFWFRSHTAGEVRWGGAKHDPDDRDDARRMHPRSSFKAFLEVVKTRSLPWKDYEMDAIHSLQLILRNAFKDSETTDVNTKVIYSKLNDLKIDGIQELEAVTSEMVRLIETATVPILAVDSDGLVNGWNTKIAELTGLSVDEAIGKHFLTLVEDSSVEIVKRMLENALEGTEEQNVQFEIKTHLSRADAGPISLVVNACASRDLHENVVGVCFVAHDLTGQKTVMDKFTRIEGDYKAIIQNPNPLIPPIFGTDEFGWCTEWNPAMSKLTGLKREEVIDKMLLGEVFGTQKSCCRLKNQEAFVNLGIVLNNAVTSQDPEKVSFAFFTRGGKYVECLLCVSKKLDREGVVTGVFCFLQLASHELQQALHVQRLAERTAVKRLKALAYIKRQIRNPLSGIMFTRKMIEGTELGPEQRRILQTSALCQKQLSKILDDSDLESIIEGCLDLEMKEFTLNEVLTASTSQVMMKSNGKSVRITNETGEEVMSDTLYGDSIRLQQVLADFMLMAVNFTPSGGQLTVSASLRKDQLGRSVHLANLEIRLTHTGAGIPEFLLNQMFGTEEDVSEEGLSLMVSRKLVKLMNGDVQYLRQAGKSSFIITAELAAANK
With B1 the binding [1] was “binds”.

B2: PHYA-HA apoprotein (protein, UniProt P14712 1-1122)
chain: MSGSRPTQSSEGSRRSRHSARIIAQTTVDAKLHADFEESGSSFDYSTSVRVTGPVVENQPPRSDKVTTTYLHHIQKGKLIQPFGCLLALDEKTFKVIAYSENASELLTMASHAVPSVGEHPVLGIGTDIRSLFTAPSASALQKALGFGDVSLLNPILVHCRTSAKPFYAIIHRVTGSIIIDFEPVKPYEVPMTAAGALQSYKLAAKAITRLQSLPSGSMERLCDTMVQEVFELTGYDRVMAYKFHEDDHGEVVSEVTKPGLEPYLGLHYPATDIPQAARFLFMKNKVRMIVDCNAKHARVLQDEKLSFDLTLCGSTLRAPHSCHLQYMANMDSIASLVMAVVVNEEDGEGDAPDATTQPQKRKRLWGLVVCHNTTPRFVPFPLRYACEFLAQVFAIHVNKEVELDNQMVEKNILRTQTLLCDMLMRDAPLGIVSQSPNIMDLVKCDGAALLYKDKIWKLGTTPSEFHLQEIASWLCEYHMDSTGLSTDSLHDAGFPRALSLGDSVCGMAAVRISSKDMIFWFRSHTAGEVRWGGAKHDPDDRDDARRMHPRSSFKAFLEVVKTRSLPWKDYEMDAIHSLQLILRNAFKDSETTDVNTKVIYSKLNDLKIDGIQELEAVTSEMVRLIETATVPILAVDSDGLVNGWNTKIAELTGLSVDEAIGKHFLTLVEDSSVEIVKRMLENALEGTEEQNVQFEIKTHLSRADAGPISLVVNACASRDLHENVVGVCFVAHDLTGQKTVMDKFTRIEGDYKAIIQNPNPLIPPIFGTDEFGWCTEWNPAMSKLTGLKREEVIDKMLLGEVFGTQKSCCRLKNQEAFVNLGIVLNNAVTSQDPEKVSFAFFTRGGKYVECLLCVSKKLDREGVVTGVFCFLQLASHELQQALHVQRLAERTAVKRLKALAYIKRQIRNPLSGIMFTRKMIEGTELGPEQRRILQTSALCQKQLSKILDDSDLESIIEGCLDLEMKEFTLNEVLTASTSQVMMKSNGKSVRITNETGEEVMSDTLYGDSIRLQQVLADFMLMAVNFTPSGGQLTVSASLRKDQLGRSVHLANLEIRLTHTGAGIPEFLLNQMFGTEEDVSEEGLSLMVSRKLVKLMNGDVQYLRQAGKSSFIITAELAAANK
In the case of B2, the binding [2] is reported as “binds”.

B3: PHYA-HA holoprotein (with phycocyanobilin) (protein, UniProt P14712 1-1122)
chain: MSGSRPTQSSEGSRRSRHSARIIAQTTVDAKLHADFEESGSSFDYSTSVRVTGPVVENQPPRSDKVTTTYLHHIQKGKLIQPFGCLLALDEKTFKVIAYSENASELLTMASHAVPSVGEHPVLGIGTDIRSLFTAPSASALQKALGFGDVSLLNPILVHCRTSAKPFYAIIHRVTGSIIIDFEPVKPYEVPMTAAGALQSYKLAAKAITRLQSLPSGSMERLCDTMVQEVFELTGYDRVMAYKFHEDDHGEVVSEVTKPGLEPYLGLHYPATDIPQAARFLFMKNKVRMIVDCNAKHARVLQDEKLSFDLTLCGSTLRAPHSCHLQYMANMDSIASLVMAVVVNEEDGEGDAPDATTQPQKRKRLWGLVVCHNTTPRFVPFPLRYACEFLAQVFAIHVNKEVELDNQMVEKNILRTQTLLCDMLMRDAPLGIVSQSPNIMDLVKCDGAALLYKDKIWKLGTTPSEFHLQEIASWLCEYHMDSTGLSTDSLHDAGFPRALSLGDSVCGMAAVRISSKDMIFWFRSHTAGEVRWGGAKHDPDDRDDARRMHPRSSFKAFLEVVKTRSLPWKDYEMDAIHSLQLILRNAFKDSETTDVNTKVIYSKLNDLKIDGIQELEAVTSEMVRLIETATVPILAVDSDGLVNGWNTKIAELTGLSVDEAIGKHFLTLVEDSSVEIVKRMLENALEGTEEQNVQFEIKTHLSRADAGPISLVVNACASRDLHENVVGVCFVAHDLTGQKTVMDKFTRIEGDYKAIIQNPNPLIPPIFGTDEFGWCTEWNPAMSKLTGLKREEVIDKMLLGEVFGTQKSCCRLKNQEAFVNLGIVLNNAVTSQDPEKVSFAFFTRGGKYVECLLCVSKKLDREGVVTGVFCFLQLASHELQQALHVQRLAERTAVKRLKALAYIKRQIRNPLSGIMFTRKMIEGTELGPEQRRILQTSALCQKQLSKILDDSDLESIIEGCLDLEMKEFTLNEVLTASTSQVMMKSNGKSVRITNETGEEVMSDTLYGDSIRLQQVLADFMLMAVNFTPSGGQLTVSASLRKDQLGRSVHLANLEIRLTHTGAGIPEFLLNQMFGTEEDVSEEGLSLMVSRKLVKLMNGDVQYLRQAGKSSFIITAELAAANK
modifications: phycocyanobilin (PCB) chromophore; residue not stated
B3 was tested, and the binding [3] was “binds” and the binding [4] was “binds”.
